This assay has as its target E2F transcription factor 1 (human (endogenous in PANC-1)) (UniProt Q01094). The assay can be described thus: co-IP; PANC-1 cell lysates; anti-E2F1 antibody used for IP, IgG antibody as negative control, input as positive control; immunoblotting.

Protein sequences, listed by entry. Tags and fused reporters are not part of them. Lines headed by an entry give the natural chain unless they say otherwise; changes in a name come on top.
UniProt Q01094: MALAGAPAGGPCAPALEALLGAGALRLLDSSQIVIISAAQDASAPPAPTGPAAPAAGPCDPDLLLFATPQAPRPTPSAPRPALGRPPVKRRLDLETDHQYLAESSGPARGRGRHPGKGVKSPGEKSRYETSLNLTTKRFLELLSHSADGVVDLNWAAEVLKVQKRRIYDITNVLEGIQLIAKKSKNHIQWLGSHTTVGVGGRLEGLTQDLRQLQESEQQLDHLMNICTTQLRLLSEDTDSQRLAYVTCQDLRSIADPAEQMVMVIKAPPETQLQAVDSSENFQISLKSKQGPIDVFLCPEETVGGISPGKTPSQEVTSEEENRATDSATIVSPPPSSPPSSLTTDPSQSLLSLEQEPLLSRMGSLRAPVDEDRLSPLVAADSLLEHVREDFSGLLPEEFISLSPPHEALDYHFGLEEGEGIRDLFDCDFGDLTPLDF

No constants are given. Whether binding was seen depends on the method and setting. Binding seen in cells or lysates may run through a third protein. Some binding calls cover weakened binding; strength is not graded here.

B1: Zinc finger protein 655 (protein, UniProt Q8N720 1-491)
chain: MEEIPAQEAAGSPRVQFQSLETQSECLSPEPQFVQDTDMEQGLTGDGETREENKLLIPKQKISEEVHSYKVRVGRLKHDITQVPETREVYKSEDRLERLQEILRKFLYLEREFRQITISKETFTSEKNNECHEPEKSFSLDSTIDADQRVLRIQNTDDNDKYDMSFNQNSASGKHEHLNLTEDFQSSECKESLMDLSHLNKWESIPNTEKSYKCDVCGKIFHQSSALTRHQRIHTREKPYKCKECEKSFSQSSSLSRHKRIHTREKPYKCEASDKSCEASDKSCSPSSGIIQHKKIHTRAKSYKCSSCERVFSRSVHLTQHQKIHKEMPCKCTVCGSDFCHTSYLLEHQRVHHEEKAYEYDEYGLAYIKQQGIHFREKPYTCSECGKDFRLNSHLIQHQRIHTGEKAHECNECGKAFSQTSCLIQHHKMHRKEKSYECNEYEGSFSHSSDLILQQEVLTRQKAFDCDVWEKNSSQRAHLVQHQSIHTKENS
For the molecule B1, the binding entry is given as “binds”.

Source of the values: PMC9352668.
